Assay results taken from PMC12442595.
These are yes or no findings as the source states them, for the method shown. Binding seen in cells or lysates may run through a third protein. Some entries that bind do so weakly or less than the wild type.

By UniProt entry, the sequences of proteins in these tests, tags left out.
UniProt P46937: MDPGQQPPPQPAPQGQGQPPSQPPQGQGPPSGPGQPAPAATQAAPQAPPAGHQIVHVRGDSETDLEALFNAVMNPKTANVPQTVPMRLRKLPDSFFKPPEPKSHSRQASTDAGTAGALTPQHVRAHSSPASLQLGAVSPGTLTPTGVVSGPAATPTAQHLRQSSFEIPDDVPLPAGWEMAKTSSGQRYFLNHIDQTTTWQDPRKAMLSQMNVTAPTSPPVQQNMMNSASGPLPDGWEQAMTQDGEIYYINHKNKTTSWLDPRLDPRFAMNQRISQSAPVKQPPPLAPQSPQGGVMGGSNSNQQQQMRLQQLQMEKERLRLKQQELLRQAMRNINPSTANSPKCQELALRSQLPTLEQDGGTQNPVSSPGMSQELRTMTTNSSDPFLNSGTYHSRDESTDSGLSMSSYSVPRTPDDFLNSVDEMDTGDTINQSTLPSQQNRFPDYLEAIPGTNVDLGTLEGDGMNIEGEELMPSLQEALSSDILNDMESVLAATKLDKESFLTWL

B1: ENH LIMs fragment (418-596 amino acids) (domain or fragment, UniProt Q96HC4 418-596)
chain: PMCAHCNQVIRGPFLVALGKSWHPEEFNCAHCKNTMAYIGFVEEKGALYCELCYEKFFAPECGRCQRKILGEVISALKQTWHVSCFVCVACGKPIRNNVFHLEDGEPYCETDYYALFGTICHGCEFPIEAGDMFLEALGYTWHDTCFVCSVCCESLEGQTFFSKKDKPLCKKHAHSVNF
B2: ENH PDZ fragment (1-85 amino acids) (domain or fragment, UniProt Q96HC4 1-85)
chain: MSNYSVSLVGPAPWGFRLQGGKDFNMPLTISSLKDGGKAAQANVRIGDVVLSIDGINAQGMTHLEAQNKIKGCTGSLNMTLQRAS

Target: FLAG-YAP (UniProt P46937)
Experiment: co-IP; HEK293T (293T) cells co-transfected with FLAG-YAP and HA-ENH or ENH fragments; YAP precipitated with anti-FLAG antibody, ENH detected by blot

Row | Binder | binding
1 | B1 | binds
2 | B2 | no binding
